We go through one substance from PMC10079833.

The chains behind the UniProt entries cited, without tags or fusion partners.
UniProt O60678: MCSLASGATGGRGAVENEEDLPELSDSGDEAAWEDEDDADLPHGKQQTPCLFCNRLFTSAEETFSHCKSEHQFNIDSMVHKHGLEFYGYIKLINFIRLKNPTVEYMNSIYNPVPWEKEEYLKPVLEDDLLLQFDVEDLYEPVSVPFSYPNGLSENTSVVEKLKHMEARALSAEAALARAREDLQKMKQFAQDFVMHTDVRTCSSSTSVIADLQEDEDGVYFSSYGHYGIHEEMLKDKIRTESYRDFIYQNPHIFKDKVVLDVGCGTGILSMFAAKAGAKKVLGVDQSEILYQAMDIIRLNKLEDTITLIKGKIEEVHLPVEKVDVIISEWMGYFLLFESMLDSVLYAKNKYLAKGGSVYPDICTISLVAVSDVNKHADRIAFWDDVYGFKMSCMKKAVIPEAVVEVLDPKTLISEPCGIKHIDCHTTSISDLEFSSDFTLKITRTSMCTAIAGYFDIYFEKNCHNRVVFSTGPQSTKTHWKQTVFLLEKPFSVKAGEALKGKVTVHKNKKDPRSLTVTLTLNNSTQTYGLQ
UniProt P67809: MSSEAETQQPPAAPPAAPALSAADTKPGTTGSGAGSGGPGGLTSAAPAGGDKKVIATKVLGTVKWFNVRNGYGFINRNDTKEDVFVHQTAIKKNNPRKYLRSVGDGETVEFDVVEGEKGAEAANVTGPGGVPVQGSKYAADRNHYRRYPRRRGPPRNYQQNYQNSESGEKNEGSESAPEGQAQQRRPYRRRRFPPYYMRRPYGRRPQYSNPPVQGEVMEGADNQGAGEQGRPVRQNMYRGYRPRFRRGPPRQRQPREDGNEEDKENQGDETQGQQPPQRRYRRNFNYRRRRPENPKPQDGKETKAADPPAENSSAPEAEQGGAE

These are yes or no findings as the source states them, for the method shown. In cells and extracts the contact can be indirect. Here binding means that the protein was enriched with, or labelled near, the bait; the list need not be complete.

The experiment addresses Protein arginine methyltransferase 3 (human (endogenous in PLC-8024, Huh7, Huh7-R, HepG2)) (UniProt O60678). Description: affinity purification with mass spectrometry; proteins co-precipitated with PRMT3 from PLC-8024 and HepG2 cell lysates, analysed by LC-MS/MS; 84 proteins common to both cell lines.

Turning to YBX1 (from UniProt P67809 1-324), the binding entry was “binds”.
